According to article PMC5426686:
These are yes or no findings as the source states them, for the method shown. In cells and extracts the contact can be indirect. Some results given as binding are weak or reduced against the parent protein; the word gives no strength.

Sequences of proteins named here, by UniProt entry; tags and fusion partners are left off.
UniProt Q7TPK6: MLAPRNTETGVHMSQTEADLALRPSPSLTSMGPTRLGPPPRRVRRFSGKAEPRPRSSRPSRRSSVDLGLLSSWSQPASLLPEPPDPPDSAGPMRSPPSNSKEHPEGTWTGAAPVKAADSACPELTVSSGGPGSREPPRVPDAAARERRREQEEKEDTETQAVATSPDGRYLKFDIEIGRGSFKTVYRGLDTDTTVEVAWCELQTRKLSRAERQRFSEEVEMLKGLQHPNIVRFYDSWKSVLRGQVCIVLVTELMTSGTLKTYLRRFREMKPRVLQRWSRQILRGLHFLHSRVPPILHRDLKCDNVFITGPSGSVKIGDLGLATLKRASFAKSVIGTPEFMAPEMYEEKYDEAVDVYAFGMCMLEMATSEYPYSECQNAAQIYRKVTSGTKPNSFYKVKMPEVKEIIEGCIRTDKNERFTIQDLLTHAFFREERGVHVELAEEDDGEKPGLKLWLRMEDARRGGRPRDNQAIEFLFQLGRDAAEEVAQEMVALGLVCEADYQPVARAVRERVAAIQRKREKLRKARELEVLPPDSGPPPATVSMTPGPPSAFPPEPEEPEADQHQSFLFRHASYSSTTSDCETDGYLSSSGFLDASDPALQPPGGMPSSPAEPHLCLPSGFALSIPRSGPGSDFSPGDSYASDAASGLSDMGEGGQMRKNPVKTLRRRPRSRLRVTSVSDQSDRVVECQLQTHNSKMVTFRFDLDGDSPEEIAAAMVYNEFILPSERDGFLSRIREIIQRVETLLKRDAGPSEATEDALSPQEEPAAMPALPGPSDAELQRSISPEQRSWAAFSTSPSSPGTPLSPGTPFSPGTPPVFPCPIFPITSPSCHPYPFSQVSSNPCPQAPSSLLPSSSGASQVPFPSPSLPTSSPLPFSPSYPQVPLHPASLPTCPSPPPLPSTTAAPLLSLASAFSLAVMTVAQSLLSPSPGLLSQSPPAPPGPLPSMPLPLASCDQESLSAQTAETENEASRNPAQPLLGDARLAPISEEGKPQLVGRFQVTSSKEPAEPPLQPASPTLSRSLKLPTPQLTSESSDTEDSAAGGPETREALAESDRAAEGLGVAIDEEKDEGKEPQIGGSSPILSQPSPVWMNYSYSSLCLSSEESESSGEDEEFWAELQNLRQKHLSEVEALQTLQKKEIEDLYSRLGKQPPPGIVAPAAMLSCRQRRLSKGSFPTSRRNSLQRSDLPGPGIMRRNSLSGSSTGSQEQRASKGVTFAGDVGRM
UniProt Q06226: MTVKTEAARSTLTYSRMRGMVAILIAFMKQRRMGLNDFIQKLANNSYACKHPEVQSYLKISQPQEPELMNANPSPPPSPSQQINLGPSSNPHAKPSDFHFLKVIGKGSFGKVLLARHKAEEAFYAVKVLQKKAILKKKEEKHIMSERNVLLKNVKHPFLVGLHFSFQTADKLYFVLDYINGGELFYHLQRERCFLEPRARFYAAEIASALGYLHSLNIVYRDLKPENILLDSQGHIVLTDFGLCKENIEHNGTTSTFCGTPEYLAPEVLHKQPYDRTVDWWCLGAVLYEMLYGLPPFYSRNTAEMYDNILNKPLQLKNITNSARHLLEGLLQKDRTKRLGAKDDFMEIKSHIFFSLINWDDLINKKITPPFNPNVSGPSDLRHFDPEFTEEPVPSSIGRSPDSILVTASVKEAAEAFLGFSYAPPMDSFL
UniProt A0ACM8Q5W3: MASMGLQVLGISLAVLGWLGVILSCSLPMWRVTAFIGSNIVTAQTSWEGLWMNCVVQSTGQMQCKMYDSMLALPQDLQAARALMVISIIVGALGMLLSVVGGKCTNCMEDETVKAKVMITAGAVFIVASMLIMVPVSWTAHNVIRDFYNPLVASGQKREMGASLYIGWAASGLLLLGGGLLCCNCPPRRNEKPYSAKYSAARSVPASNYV

Columns and labels:
[1] = biological target: with-no-lysine kinase 4 (rat (endogenous in distal tubules of Wistar rats)) (UniProt Q7TPK6); assay: co-IP; endogenous proteins in extracts (1 mg, RIPA buffer) of distal tubules isolated from rats of four groups (control, diabetic by streptozotocin, diabetic + spironolactone, spironolactone); immunoprecipitating antibody (anti-cldn-4, anti-cldn-8 or anti-WNK4) bound to protein G-agarose, overnight at 4°C, washed thrice with RIPA buffer; immunoblot; irrelevant antibody as negative control
[2] = biological target: claudin-4 (rat (endogenous in distal tubules of Wistar rats)); assay: as above

Substance	binding [1]	binding [2]
serum and glucocorticoid-induced kinase 1 (from UniProt Q06226 1-430) (enzyme)	binds	
claudin-4 (from UniProt A0ACM8Q5W3 1-210)	binds	
with-no-lysine kinase 4 (from UniProt Q7TPK6 1-1222) (enzyme)		binds
